Laboratory results taken from patent publication US20250263370A1 (Tay Therapeutics Limited, priority 2022, published 2025).
Where “and” joins values, the source holds several entries; their conditions need not be identical. Equal values may be shown once. Further values from the same series stand in other lists.

System: collagen-induced arthritis
Test: Collagen-induced arthritis (CIA) model in rats: body weight, paw volume, clinical scores, clinical observations
Conditions: individual animals

Structure (SMILES) | Animal paw volume percent change (Day 15, L paw) | Animal paw volume percent change (Day 15, R paw) | Animal paw volume percent change (Day 18, L paw) | Animal paw volume percent change (Day 18, R paw) | Animal paw volume percent change (Day 19, L paw) | Animal paw volume percent change (Day 19, R paw) | Animal paw volume percent change (Day 21, L paw) | Animal paw volume percent change (Day 21, R paw)
CNC(=O)c1cc(C(=O)NC2CC2)cn(Cc2ccccc2)c1=O [GSK620, reference compound] | 8.79% and 10.58% and 19.48% and 62.36% and 29.63% | 76.92% and 7.33% and 17.36% and 60.38% and 33.71% | 109.89% and 67.15% and 53.18% and 101.90% and 72.96% | 130.40% and 6.59% and 53.96% and 79.25% and 75.28% | 83.00% and 123.81% and 90.15% and 63.67% and 100.00% and 71.48% | 82.75% and 130.40% and 6.59% and 65.66% and 77.74% and 74.16% | 84.58% and 122.34% and 90.88% and 65.17% and 92.78% and 71.48% | 72.94% and 125.27% and 17.95% and 64.15% and 78.49% and 74.16%
C[C@@H]1C[C@H]2[C@@H]3CCC4=CC(=O)C=C[C@]4(C)[C@@]3(F)[C@@H](O)C[C@]2(C)[C@@]1(O)C(=O)CO [dexamethasone, reference compound] | −3.77% and −3.09% and −10.77% and −0.75% and −6.99% | −5.95% and −1.56% and −12.36% and −2.95% and −8.06% | – | −2.97% and 0.00% and −10.04% and −1.48% and −5.86% | 3.61% and −2.26% and −1.54% and −8.85% and −0.75% and −4.78% | 4.36% and −2.97% and −1.56% and −9.27% and −2.58% and −5.13% | – | 3.64% and −2.97% and 0.78% and −9.27% and −2.95% and −5.13%
